# Laboratory results: the supplement of paper PMC8728848
# The other results are listed elsewhere or left out.
# B1: MXA PilAct-eGFP (Myxococcus xanthus), Q59589 (protein)
# chain: MRVSRFNPRNRGFTLIELMIVVAIIGILAAIAIPNFIKFQARSKQSEAKTNLKALYTAQKSFFSEKDRYSDFANEIGFAPERGNRYGYRVSAAAGDCEVRNAADLPVPAAGVPCISNDSFRFGANSAIDDPTPVVARFVPQGAAGWNTTLGVQPTIADCPNCNFFAGARGNADNEATFDDWVIAGFEGSGQVGPCSEAGNVASGTPYNTRNDVACDGAAQ
# How the values were obtained:
# Assay in all cases: glycan array binding signal (z-score within array); higher = stronger binding
# Conditions in all cases: glycan notation: IUPAC condensed, linker removed
# [1] = biological target: Gal(b1-4)Glc
# Summary of the method: (§1)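 From the Consortium for Functional Glycomics database, 3228 arrays were curated, keeping only those whose protein sequence was available. Binding is given as a within-array Z-score averaged across arrays sharing a protein sequence and across linkers. Negative Z-scores can be read as non-binding.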
# [2] = biological target: Gal(b1-4)Glc6S
# Summary of the method: as §1
# [3] = biological target: Gal(b1-4)GlcNAc
# Summary of the method: as §1
# [4] = biological target: Gal(b1-4)GlcNAc(a1-6)Gal(b1-4)GlcNAc
# Summary of the method: as §1
# [5] = biological target: Gal(b1-4)GlcNAc(b1-2)Man
# Summary of the method: as §1
# [6] = biological target: Gal(b1-4)GlcNAc(b1-2)Man(a1-3)Man(b1-4)GlcNAc(b1-4)GlcNAc
# Summary of the method: as §1
# [7] = biological target: Gal(b1-4)GlcNAc(b1-2)Man(a1-3)[Gal(b1-4)GlcNAc(b1-2)Man(a1-6)]Man(b1-4)GlcNAc(b1-4)GlcNAc
# Summary of the method: as §1
# [8] = biological target: Gal(b1-4)GlcNAc(b1-2)Man(a1-3)[Gal(b1-4)GlcNAc(b1-2)Man(a1-6)]Man(b1-4)GlcNAc(b1-4)[Fuc(a1-6)]GlcNAc
# Summary of the method: as §1
# [9] = biological target: Gal(b1-4)GlcNAc(b1-2)Man(a1-3)[Gal(b1-4)GlcNAc(b1-2)Man(a1-6)][Gal(b1-4)GlcNAc(b1-4)]Man(b1-4)GlcNAc(b1-4)[Fuc(a1-6)]GlcNAc
# Summary of the method: as §1
# [10] = biological target: Gal(b1-4)GlcNAc(b1-2)Man(a1-3)[Gal(b1-4)GlcNAc(b1-2)Man(a1-6)][GlcNAc(b1-4)]Man(b1-4)GlcNAc(b1-4)[Fuc(a1-6)]GlcNAc
# Summary of the method: as §1
# [11] = biological target: Gal(b1-4)GlcNAc(b1-2)Man(a1-3)[GlcNAc(b1-2)Man(a1-6)]Man(b1-4)GlcNAc(b1-4)GlcNAc
# Summary of the method: as §1
# [12] = biological target: Gal(b1-4)GlcNAc(b1-2)Man(a1-3)[GlcNAc(b1-4)][Gal(b1-4)GlcNAc(b1-2)Man(a1-6)]Man(b1-4)GlcNAc(b1-4)GlcNAc
# Summary of the method: as §1
# [13] = biological target: Gal(b1-4)GlcNAc(b1-2)Man(a1-3)[Man(a1-6)]Man(b1-4)GlcNAc(b1-4)GlcNAc
# Summary of the method: as §1
# [14] = biological target: Gal(b1-4)GlcNAc(b1-2)Man(a1-6)Man(b1-4)GlcNAc(b1-4)GlcNAc
# Summary of the method: as §1
# [15] = biological target: Gal(b1-4)GlcNAc(b1-2)Man(a1-6)[GlcNAc(b1-2)Man(a1-3)]Man(b1-4)GlcNAc(b1-4)GlcNAc
# Summary of the method: as §1
# [16] = biological target: Gal(b1-4)GlcNAc(b1-2)Man(a1-6)[Man(a1-3)]Man(b1-4)GlcNAc(b1-4)GlcNAc
# Summary of the method: as §1
# [17] = biological target: Gal(b1-4)GlcNAc(b1-2)[Gal(b1-4)GlcNAc(b1-4)]Man(a1-3)[Gal(b1-4)GlcNAc(b1-2)Man(a1-6)]Man(b1-4)GlcNAc(b1-4)GlcNAc
# Summary of the method: as §1
# [18] = biological target: Gal(b1-4)GlcNAc(b1-2)[Gal(b1-4)GlcNAc(b1-4)]Man(a1-3)[Gal(b1-4)GlcNAc(b1-2)[Gal(b1-4)GlcNAc(b1-6)]Man(a1-6)]Man(b1-4)GlcNAc(b1-4)GlcNAc
# Summary of the method: as §1
# [19] = biological target: Gal(b1-4)GlcNAc(b1-2)[Gal(b1-4)GlcNAc(b1-4)]Man(a1-3)[GlcNAc(b1-4)][Gal(b1-4)GlcNAc(b1-2)Man(a1-6)]Man(b1-4)GlcNAc(b1-4)GlcNAc
# Summary of the method: as §1
# [20] = biological target: Gal(b1-4)GlcNAc(b1-2)[Gal(b1-4)GlcNAc(b1-4)]Man(a1-3)[GlcNAc(b1-4)][Gal(b1-4)GlcNAc(b1-2)[Gal(b1-4)GlcNAc(b1-6)]Man(a1-6)]Man(b1-4)GlcNAc(b1-4)GlcNAc
# Summary of the method: as §1
# [21] = biological target: Gal(b1-4)GlcNAc(b1-2)[Gal(b1-4)GlcNAc(b1-6)]Man(a1-6)[Gal(b1-4)GlcNAc(b1-2)Man(a1-3)]Man(b1-4)GlcNAc(b1-4)GlcNAc
# Summary of the method: as §1
# [22] = biological target: Gal(b1-4)GlcNAc(b1-2)[Gal(b1-4)GlcNAc(b1-6)]Man(a1-6)[Gal(b1-4)GlcNAc(b1-2)Man(a1-3)]Man(b1-4)GlcNAc(b1-4)[Fuc(a1-6)]GlcNAc
# Summary of the method: as §1
binder,measurement,setting,value
B1,glycan array binding signal (z-score),[1],-1.09
same,glycan array binding signal (z-score),[2],0.801
same,glycan array binding signal (z-score),[3],-0.404
same,glycan array binding signal (z-score),[4],-0.795
same,glycan array binding signal (z-score),[5],-0.783
same,glycan array binding signal (z-score),[6],1.07
same,glycan array binding signal (z-score),[7],1.44
same,glycan array binding signal (z-score),[8],-0.023
same,glycan array binding signal (z-score),[9],0.313
same,glycan array binding signal (z-score),[10],-0.143
same,glycan array binding signal (z-score),[11],0.083
same,glycan array binding signal (z-score),[12],-0.265
same,glycan array binding signal (z-score),[13],-0.783
same,glycan array binding signal (z-score),[14],-0.203
same,glycan array binding signal (z-score),[15],-0.132
same,glycan array binding signal (z-score),[16],-1.29
same,glycan array binding signal (z-score),[17],0.176
same,glycan array binding signal (z-score),[18],1.15
same,glycan array binding signal (z-score),[19],0.006
same,glycan array binding signal (z-score),[20],1.04
same,glycan array binding signal (z-score),[21],0.141
same,glycan array binding signal (z-score),[22],1.03

# Rewritten with bars between the fields: part of the list above.
binder | measurement | setting | value
B1 | glycan array binding signal (z-score) | [4] | -0.795
same | glycan array binding signal (z-score) | [5] | -0.783
